{"source": "PubChem BioAssay AID330", "about": "(DTP/NCI, 2004)", "system": "P388 leukemia ip, CD2F1 mice, survival T/C", "assay": "NCI In Vivo Anticancer Drug Screen. Data for tumor model P388 Leukemia (intraperitoneal) in CD2F1 (CDF1) mice", "details": "T/C endpoint: median survival time, higher T/C = longer survival", "key": {"[1]": {"details": "dose: 50.0 mg/kg/injection, schedule: Q01DX001 (ip), vehicle: Klucel (hydroxypropylcellulose) (HPC)"}, "[2]": {"details": "dose: 100.0 mg/kg/injection, schedule: Q01DX001 (ip), vehicle: Klucel (hydroxypropylcellulose) (HPC)"}, "[3]": {"details": "dose: 200.0 mg/kg/injection, schedule: Q01DX001 (ip), vehicle: Klucel (hydroxypropylcellulose) (HPC)"}, "[4]": {"details": "dose: 50.0 mg/kg/injection, schedule: Q01DX005 (ip), vehicle: Klucel (hydroxypropylcellulose) (HPC)"}, "[5]": {"details": "dose: 100.0 mg/kg/injection, schedule: Q01DX005 (ip), vehicle: Klucel (hydroxypropylcellulose) (HPC)"}, "[6]": {"details": "dose: 200.0 mg/kg/injection, schedule: Q01DX005 (ip), vehicle: Klucel (hydroxypropylcellulose) (HPC)"}}, "note": "The list shows only some results of the screen, not a fair sample: it gathers some chemical classes. Other doses and runs of a compound may be missing. T/C gives the treated animals as a percentage of the vehicle group. Some entries give survivors of the animals treated and no T/C: the source holds a T/C of zero for them, seemingly a mark for toxic or unscored doses. Some survivor counts are full or nearly so, which does not show that the dose was tolerated: the source hardly ever lists a survival T/C far under the control, and the zero likely stands for such cases as well. Counts of survivors are from the toxicity check (mostly the fifth day) where no day follows; animals may have died later. Schedules are NCI's codes, taken here to give the interval after Q, in days (D) or hours (H), and the number of doses after X. For survival time, this PubChem deposit counts one and a half times the control or more as active, and values a quarter to a half above the control carry no call in these data; other NCI protocols may use other cut-offs. Some doses were run more than once; their values stand side by side, smallest first. Some T/C values are marked as having no survivor count here; that says nothing about deaths at the dose. Some T/C values carry the count of animals alive at the toxicity check (mostly the fifth day); where neither a count nor a note follows, no animal had died by that day."}
{"smiles": "Nc1ccc([As]=O)cc1", "note": "(stereo not drawn)", "values": [{"measurement": "T/C", "setting": "dose: 0.39 mg/kg/injection, schedule: Q01DX005 (ip), vehicle: saline with Tween-80", "result": "126 and 135 % of control"}, {"measurement": "T/C", "setting": "dose: 0.78 mg/kg/injection, schedule: Q01DX005 (ip), vehicle: saline with Tween-80", "result": "128 and 146 % of control"}, {"measurement": "T/C", "setting": "dose: 1.56 mg/kg/injection, schedule: Q01DX005 (ip), vehicle: saline with Tween-80", "result": "128 and 129 % of control"}, {"measurement": "T/C", "setting": "dose: 3.13 mg/kg/injection, schedule: Q01DX005 (ip), vehicle: saline with Tween-80", "result": "131 and 144 % of control"}, {"measurement": "survivor count", "setting": "dose: 6.25 mg/kg/injection, schedule: Q01DX005 (ip), vehicle: saline with Tween-80", "result": "5 of 6"}, {"measurement": "survivor count", "setting": "dose: 12.5 mg/kg/injection, schedule: Q01DX005 (ip), vehicle: saline with Tween-80", "result": "0 of 6"}, {"measurement": "survivor count", "setting": "dose: 25.0 mg/kg/injection, schedule: Q01DX005 (ip), vehicle: saline with Tween-80", "result": "0 of 6"}, {"measurement": "survivor count", "setting": "dose: 50.0 mg/kg/injection, schedule: Q01DX005 (ip), vehicle: saline with Tween-80", "result": "0 of 6"}, {"measurement": "survivor count", "setting": "dose: 100.0 mg/kg/injection, schedule: Q01DX005 (ip), vehicle: saline with Tween-80", "result": "0 of 6"}, {"measurement": "survivor count", "setting": "dose: 200.0 mg/kg/injection, schedule: Q01DX005 (ip), vehicle: saline with Tween-80", "result": "0 of 6"}]}
{"smiles": "NC(=O)C1=CN(CCBr)C=CC1", "values": [{"measurement": "T/C", "setting": "[1]", "result": "100 % of control"}, {"measurement": "T/C", "setting": "[2]", "result": "100 % of control"}, {"measurement": "survivor count", "setting": "[3]", "result": "0 of 6"}]}
{"smiles": "ClC1CCC2C=CCC1S2", "note": "(stereo not drawn)", "values": [{"measurement": "T/C", "setting": "dose: 50.0 mg/kg/injection, schedule: Q01DX009 (ip), vehicle: distilled water + Tween-80", "result": "110 % of control"}]}
{"smiles": "N/C(=N\\[N+](=O)[O-])N(CCCl)N=O", "values": [{"measurement": "T/C", "setting": "dose: 5.0 mg/kg/injection, schedule: Q01DX009 (ip), vehicle: saline", "result": "100 % of control"}, {"measurement": "T/C", "setting": "dose: 10.0 mg/kg/injection, schedule: Q01DX009 (ip), vehicle: saline", "result": "104 % of control"}, {"measurement": "T/C", "setting": "dose: 20.0 mg/kg/injection, schedule: Q01DX009 (ip), vehicle: saline", "result": "118 % of control"}, {"measurement": "T/C", "setting": "dose: 40.0 mg/kg/injection, schedule: Q01DX009 (ip), vehicle: saline", "result": "127 % of control"}]}
{"smiles": "COP(C)(=O)O.[Cr]", "values": [{"measurement": "T/C", "setting": "[1]", "result": "105 % of control [survivor count not shown]"}, {"measurement": "T/C", "setting": "[2]", "result": "100 % of control [survivor count not shown]"}, {"measurement": "T/C", "setting": "[3]", "result": "88 % of control [survivor count not shown]"}]}
{"smiles": "CCSC(=O)OCC([N+](=O)[O-])([N+](=O)[O-])[N+](=O)[O-]", "values": [{"measurement": "T/C", "setting": "dose: 100.0 mg/kg/injection, schedule: Q04DX003 (ip), vehicle: saline", "result": "97 % of control"}, {"measurement": "T/C", "setting": "dose: 200.0 mg/kg/injection, schedule: Q04DX003 (ip), vehicle: saline", "result": "103 % of control"}, {"measurement": "T/C", "setting": "dose: 400.0 mg/kg/injection, schedule: Q04DX003 (ip), vehicle: saline", "result": "100 % of control"}]}
{"smiles": "C/C(N)=N\\P(=O)(OCc1ccccc1)OCc1ccccc1", "values": [{"measurement": "T/C", "setting": "[4]", "result": "100 % of control"}, {"measurement": "T/C", "setting": "[5]", "result": "94 % of control"}, {"measurement": "T/C", "setting": "[6]", "result": "97 % of control [5 of 6 alive]"}]}
{"smiles": "COc1ccc(C2=CCN(c3ccc(OC)cc3)P(=O)(Cl)O2)cc1", "note": "(stereo not drawn)", "values": [{"measurement": "T/C", "setting": "[4]", "result": "103 % of control"}, {"measurement": "T/C", "setting": "[5]", "result": "106 % of control"}, {"measurement": "T/C", "setting": "[6]", "result": "103 % of control"}]}
{"smiles": "O=[N+]([O-])c1cc([N+](=O)[O-])c(Nc2cc(Cl)cc(Cl)c2)c([N+](=O)[O-])c1", "values": [{"measurement": "T/C", "setting": "dose: 50.0 mg/kg/injection, schedule: Q01DX009 (ip), vehicle: saline with Tween-80", "result": "97 % of control"}, {"measurement": "T/C", "setting": "dose: 100.0 mg/kg/injection, schedule: Q01DX009 (ip), vehicle: saline with Tween-80", "result": "103 % of control"}, {"measurement": "T/C", "setting": "dose: 200.0 mg/kg/injection, schedule: Q01DX009 (ip), vehicle: saline with Tween-80", "result": "95 % of control"}]}
